Measured values reported in patent US20260297127A1, “REVERSIBLE SURFACTANT AND MULTIFUNCTIONAL DRUG DELIVERY SYSTEMS BASED THEREON” (Yissum Research Development Company of the Hebrew …, priority 2023, published 2026).

Test: Emulsion functionalization with hexahistidine-tagged compounds (fluorescence)
Conditions: fluorescence microscopy; for localization on the emulsion: pH 7.5

Row | Molecule | droplet coating fluorescence (H6-Rh added) | localization on the emulsion | state after pH is lowered (lowered / acidic pH)
1 | CCN(CC)c1ccc2c(-c3ccccc3C(=O)N[C@@H](Cc3c[nH]cn3)C(=O)N[C@@H](Cc3c[nH]cn3)C(=O)N[C@@H](Cc3c[nH]cn3)C(=O)N[C@@H](Cc3c[nH]cn3)C(=O)N[C@@H](Cc3c[nH]cn3)C(=O)N[C@@H](Cc3c[nH]cn3)C(N)=O)c3ccc(=[N+](CC)CC)cc-3oc2c1 [H6—Rh, NH2-(His)6-Rhodamine B] | stronger fluorescence at the circumference of the droplets | – | –
2 | CCN(CC)c1ccc2nc3c4ccccc4c(=O)cc-3oc2c1 [Nile red] | – | inside the oil droplets | –
3 | NH2-(His)6-FITC [H6-FITC] | – | encircling the droplets | formed aggregates
